No constants are given. Whether binding was seen depends on the method and setting. Binding seen in cells or lysates may run through a third protein. Some binding calls cover weakened binding; strength is not graded here. Where a sequence is shown, tags or fusion partners need not be part of it.
Assays:
[1] = molecular target: T1, FLAG-TRIM23 (tripartite motif protein 23), expressed in HEK293T cells (human) (UniProt P36406); test: co-IP; HEK293T cells transfected with FLAG-TRIM23 and HA-PPARγ2; lysis in 50 mM Tris-HCl pH 7.4, 150 mM NaCl, 1% Triton X-100; immunoprecipitation with anti-FLAG antibody, blot with anti-HA; also with or without 1 μM troglitazone
T1 sequence: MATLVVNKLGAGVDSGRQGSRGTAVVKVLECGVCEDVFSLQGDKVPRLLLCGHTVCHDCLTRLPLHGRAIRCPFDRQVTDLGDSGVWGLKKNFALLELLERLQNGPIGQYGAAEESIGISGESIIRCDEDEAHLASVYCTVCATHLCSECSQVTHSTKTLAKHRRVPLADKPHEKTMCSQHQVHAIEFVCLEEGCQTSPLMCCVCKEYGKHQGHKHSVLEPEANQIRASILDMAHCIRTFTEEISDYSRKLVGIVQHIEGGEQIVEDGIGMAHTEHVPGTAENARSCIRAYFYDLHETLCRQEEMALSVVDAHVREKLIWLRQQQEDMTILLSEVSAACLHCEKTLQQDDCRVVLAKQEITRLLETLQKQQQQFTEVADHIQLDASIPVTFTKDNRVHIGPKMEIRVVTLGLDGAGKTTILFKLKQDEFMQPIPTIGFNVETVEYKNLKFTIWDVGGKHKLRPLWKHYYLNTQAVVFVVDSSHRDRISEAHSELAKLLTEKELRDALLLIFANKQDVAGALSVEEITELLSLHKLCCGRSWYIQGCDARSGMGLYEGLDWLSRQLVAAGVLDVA

[2] = molecular target: T2, FLAG-TRIM23, stably expressed in 3T3-L1 cells (human) (UniProt P36406); test: co-IP; 3T3-L1 cells stably expressing FLAG-TRIM23, differentiated, harvested at day 6; whole cell lysates immunoprecipitated with anti-FLAG antibody, blot with anti-PPARγ
T2 sequence: T1 sequence

| Substance | binding [1] | binding [2] |
| --- | --- | --- |
| HA-PPARγ2 (peroxisome proliferator-activated receptor γ, isoform 2), expressed in HEK293T cells (from UniProt P37238-1 1-505) | binds | – |
| endogenous PPARγ2 of differentiated 3T3-L1 cells (from UniProt P37238-1 1-505) | – | binds |

From PMC4426667
